# Results published in patent US12544348B2, “Methods for treating APOE4/4-associated disorders” (The Regents of the University of California, priority 2018, dated 2026).
# Legend:
# [1] = test system: apoE3-KI mice; assay: Morris water maze (MWM) spatial learning and memory, aged apoE3-KI mice; assay type: in vivo; details: 0.02 or 0.2 mg/kg daily i.p.
# From the text: (§1) Mice. All protocols and procedures followed the guidelines of the Laboratory Animal Resource Center at the University of California, San Francisco (UCSF). All mice were housed under identical conditions from birth through death (12-hour light/dark cycle, housed 5/cage, PicoLab Rodent Diet 20). All mouse lines were maintained on a C57Bl/6J background. ApoE3-KI and apoE4-KI homozygous mouse lines (Taconic)^30,31 were born and aged under normal conditions at the Gladstone Institutes/UCSF animal facility. Female apoE-KI mice were used because of their susceptibility to AD-related neuronal and behavioral deficits. The ages of the mice are indicated in the behavioral testing section of the online methods. Bumetanide treatment. […] Body weight was measured weekly during bumetanide treatment; injection volume was calculated to achieve a dose of 0.02 (low) or 0.2 (high) mg bumetanide/kg body mass (e.g., 50-ul daily injection for a 20-g mouse). […] Performance was monitored with an Etho Vision video-tracking system (Noldus Information Technology). […] Behavior metrics are expressed as mean±SEM. […] The distribution of data was assessed with the Shapiro-Wilk normality test; most of the data were normally distributed. […]
# [2] = test system: apoE4-KI mice; assay: Morris water maze (MWM) spatial learning and memory, aged apoE4-KI mice; assay type: in vivo; details: 0.02 or 0.2 mg/kg daily i.p.
# From the text: as §1
smiles,measurement,setting,value
"CCCCNc1cc(C(=O)O)cc(S(N)(=O)=O)c1Oc1ccccc1 [bumetanide, 3-(butylamino)-4-phenoxy-5-sulfamoylbenzoic acid]",swim speed during hidden platform trials,[1],did not significantly affect swim speed
same,visible trial performance (motor or vision impairment),[1],no significant difference
same,swim speed during hidden platform trials,[2],did not significantly affect swim speed
same,visible trial performance (motor or vision impairment),[2],no significant difference
